Measured values taken from US20030077699A1.
No constants are given. Whether binding was seen depends on the method and setting. Binding seen in cells or lysates may run through a third protein. Some binding calls cover weakened binding; strength is not graded here. For some assays here: Sequences can lack the tags named with a protein.

Sequences of proteins named here, by UniProt entry; tags and fusion partners are left off.
UniProt Q9ULZ3: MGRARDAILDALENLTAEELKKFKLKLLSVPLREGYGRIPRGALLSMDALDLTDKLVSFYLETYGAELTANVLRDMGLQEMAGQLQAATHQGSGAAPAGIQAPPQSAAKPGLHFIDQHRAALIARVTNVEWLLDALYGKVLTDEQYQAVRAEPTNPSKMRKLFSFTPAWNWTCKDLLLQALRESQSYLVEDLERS
UniProt O43353: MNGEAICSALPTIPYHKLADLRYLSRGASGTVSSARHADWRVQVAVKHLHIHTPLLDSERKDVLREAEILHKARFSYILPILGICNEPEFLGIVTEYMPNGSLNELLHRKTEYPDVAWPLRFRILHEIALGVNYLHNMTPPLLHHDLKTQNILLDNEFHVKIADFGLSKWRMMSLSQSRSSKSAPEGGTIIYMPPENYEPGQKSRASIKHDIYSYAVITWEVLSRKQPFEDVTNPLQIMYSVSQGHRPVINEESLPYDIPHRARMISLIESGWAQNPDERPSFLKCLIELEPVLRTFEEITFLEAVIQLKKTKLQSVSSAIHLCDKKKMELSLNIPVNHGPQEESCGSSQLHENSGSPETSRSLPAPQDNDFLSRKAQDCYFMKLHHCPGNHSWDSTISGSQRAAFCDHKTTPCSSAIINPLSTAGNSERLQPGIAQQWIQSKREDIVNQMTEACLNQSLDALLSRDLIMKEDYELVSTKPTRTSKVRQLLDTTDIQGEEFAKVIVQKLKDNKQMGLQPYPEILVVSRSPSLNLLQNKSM
UniProt P29466: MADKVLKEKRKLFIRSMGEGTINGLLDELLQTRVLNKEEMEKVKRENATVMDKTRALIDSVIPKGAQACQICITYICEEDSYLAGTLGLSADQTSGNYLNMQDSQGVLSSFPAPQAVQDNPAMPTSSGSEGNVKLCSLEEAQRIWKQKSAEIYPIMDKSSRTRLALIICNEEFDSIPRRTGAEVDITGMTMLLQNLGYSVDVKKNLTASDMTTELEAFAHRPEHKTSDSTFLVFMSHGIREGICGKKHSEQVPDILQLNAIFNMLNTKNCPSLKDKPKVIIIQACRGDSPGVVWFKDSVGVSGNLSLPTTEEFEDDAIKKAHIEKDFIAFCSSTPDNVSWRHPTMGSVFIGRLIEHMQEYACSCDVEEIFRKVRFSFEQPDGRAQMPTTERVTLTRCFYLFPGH

T1: Flag-Nod1 (UniProt Q9Y239)
T1 sequence (looked up): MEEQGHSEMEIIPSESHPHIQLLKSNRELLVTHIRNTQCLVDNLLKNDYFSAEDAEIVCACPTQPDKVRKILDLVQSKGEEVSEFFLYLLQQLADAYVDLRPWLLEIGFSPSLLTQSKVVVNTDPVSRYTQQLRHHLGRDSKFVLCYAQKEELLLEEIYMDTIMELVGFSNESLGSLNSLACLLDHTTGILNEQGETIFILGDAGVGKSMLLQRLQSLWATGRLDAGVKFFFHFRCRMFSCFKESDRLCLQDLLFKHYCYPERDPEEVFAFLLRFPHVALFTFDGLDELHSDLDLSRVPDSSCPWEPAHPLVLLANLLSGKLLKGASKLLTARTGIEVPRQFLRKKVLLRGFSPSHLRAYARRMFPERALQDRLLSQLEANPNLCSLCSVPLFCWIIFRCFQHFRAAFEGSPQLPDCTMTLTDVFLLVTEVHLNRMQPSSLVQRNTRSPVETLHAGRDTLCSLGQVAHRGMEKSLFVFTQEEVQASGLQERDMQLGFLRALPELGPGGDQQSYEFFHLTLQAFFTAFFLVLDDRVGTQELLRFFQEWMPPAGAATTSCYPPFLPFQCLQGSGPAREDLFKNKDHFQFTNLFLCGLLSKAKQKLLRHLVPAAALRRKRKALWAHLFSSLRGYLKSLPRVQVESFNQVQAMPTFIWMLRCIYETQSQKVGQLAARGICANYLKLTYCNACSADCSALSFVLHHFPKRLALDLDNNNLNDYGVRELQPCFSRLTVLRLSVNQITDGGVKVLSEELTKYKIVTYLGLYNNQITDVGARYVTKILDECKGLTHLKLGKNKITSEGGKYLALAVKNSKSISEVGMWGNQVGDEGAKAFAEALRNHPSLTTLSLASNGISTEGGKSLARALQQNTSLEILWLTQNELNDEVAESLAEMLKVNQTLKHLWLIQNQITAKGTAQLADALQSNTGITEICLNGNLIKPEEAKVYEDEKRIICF

T2: Myc-Card10 (UniProt Q9BWT7)
T2 sequence (looked up): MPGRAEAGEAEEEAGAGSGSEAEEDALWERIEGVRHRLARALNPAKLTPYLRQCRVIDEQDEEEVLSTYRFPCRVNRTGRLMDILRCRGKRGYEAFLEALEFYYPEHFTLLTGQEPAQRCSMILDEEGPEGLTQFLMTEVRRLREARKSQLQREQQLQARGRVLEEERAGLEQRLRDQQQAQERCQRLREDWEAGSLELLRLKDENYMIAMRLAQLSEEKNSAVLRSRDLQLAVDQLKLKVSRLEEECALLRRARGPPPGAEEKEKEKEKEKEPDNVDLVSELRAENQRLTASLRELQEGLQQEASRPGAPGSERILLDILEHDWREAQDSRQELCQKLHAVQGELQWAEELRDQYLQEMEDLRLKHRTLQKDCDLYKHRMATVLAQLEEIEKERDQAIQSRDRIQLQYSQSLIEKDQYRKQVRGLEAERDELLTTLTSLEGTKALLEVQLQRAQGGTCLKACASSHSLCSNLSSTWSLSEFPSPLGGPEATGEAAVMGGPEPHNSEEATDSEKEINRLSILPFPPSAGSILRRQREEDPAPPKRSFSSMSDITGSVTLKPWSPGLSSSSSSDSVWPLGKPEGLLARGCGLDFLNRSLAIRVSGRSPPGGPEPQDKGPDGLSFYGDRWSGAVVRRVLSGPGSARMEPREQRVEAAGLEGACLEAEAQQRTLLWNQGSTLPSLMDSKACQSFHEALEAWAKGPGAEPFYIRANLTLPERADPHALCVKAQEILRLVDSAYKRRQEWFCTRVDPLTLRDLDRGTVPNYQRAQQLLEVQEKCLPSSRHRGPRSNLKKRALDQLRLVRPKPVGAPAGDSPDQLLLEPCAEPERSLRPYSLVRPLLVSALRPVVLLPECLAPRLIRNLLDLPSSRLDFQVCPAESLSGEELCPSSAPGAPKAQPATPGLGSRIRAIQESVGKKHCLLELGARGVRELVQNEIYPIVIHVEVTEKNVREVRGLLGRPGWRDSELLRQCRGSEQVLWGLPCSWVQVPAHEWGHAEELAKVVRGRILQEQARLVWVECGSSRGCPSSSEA


What was measured:
[1] = target: HA-ASC (human) (UniProt Q9ULZ3); assay: co-immunoprecipitation from HEK293T cells, immunoblot
[2] = target: T1, Flag-Nod1; assay: co-immunoprecipitation from HEK293T cells
[3] = target: Flag-Cardiak (UniProt O43353); assay: co-immunoprecipitation from HEK293T cells
[4] = target: T2, Myc-Card10; assay: co-immunoprecipitation from HEK293T cells
[5] = target: Myc-Caspase-1 (UniProt P29466); assay: co-immunoprecipitation from HEK293T cells

| Molecule | binding [1] | other results |
| --- | --- | --- |
| Flag-Cardiak (from UniProt O43353 1-540) (enzyme) | binds |  |
| HA-ASC (from UniProt Q9ULZ3 1-195) |  | binding [2]: binds; binding [3]: binds; binding [4]: binds; binding [5]: binds |
| Myc-Card10 (protein, UniProt Q9BWT7 1-1032, looked up, not shown: small tags and cut ends) MPGRAEAGEAEEEAGAGSGSEAEEDALWERIEGVRHRLARALNPAKLTPYLRQCRVIDEQDEEEVLSTYRFPCRVNRTGRLMDILRCRGKRGYEAFLEALEFYYPEHFTLLTGQEPAQRCSMILDEEGPEGLTQFLMTEVRRLREARKSQLQREQQLQARGRVLEEERAGLEQRLRDQQQAQERCQRLREDWEAGSLELLRLKDENYMIAMRLAQLSEEKNSAVLRSRDLQLAVDQLKLKVSRLEEECALLRRARGPPPGAEEKEKEKEKEKEPDNVDLVSELRAENQRLTASLRELQEGLQQEASRPGAPGSERILLDILEHDWREAQDSRQELCQKLHAVQGELQWAEELRDQYLQEMEDLRLKHRTLQKDCDLYKHRMATVLAQLEEIEKERDQAIQSRDRIQLQYSQSLIEKDQYRKQVRGLEAERDELLTTLTSLEGTKALLEVQLQRAQGGTCLKACASSHSLCSNLSSTWSLSEFPSPLGGPEATGEAAVMGGPEPHNSEEATDSEKEINRLSILPFPPSAGSILRRQREEDPAPPKRSFSSMSDITGSVTLKPWSPGLSSSSSSDSVWPLGKPEGLLARGCGLDFLNRSLAIRVSGRSPPGGPEPQDKGPDGLSFYGDRWSGAVVRRVLSGPGSARMEPREQRVEAAGLEGACLEAEAQQRTLLWNQGSTLPSLMDSKACQSFHEALEAWAKGPGAEPFYIRANLTLPERADPHALCVKAQEILRLVDSAYKRRQEWFCTRVDPLTLRDLDRGTVPNYQRAQQLLEVQEKCLPSSRHRGPRSNLKKRALDQLRLVRPKPVGAPAGDSPDQLLLEPCAEPERSLRPYSLVRPLLVSALRPVVLLPECLAPRLIRNLLDLPSSRLDFQVCPAESLSGEELCPSSAPGAPKAQPATPGLGSRIRAIQESVGKKHCLLELGARGVRELVQNEIYPIVIHVEVTEKNVREVRGLLGRPGWRDSELLRQCRGSEQVLWGLPCSWVQVPAHEWGHAEELAKVVRGRILQEQARLVWVECGSSRGCPSSSEA | binds |  |

The next lines start with results.

| binding [1] | Molecule | other results |
| --- | --- | --- |
| binds | Myc-Caspase-1 (from UniProt P29466 1-404) (enzyme) |  |
| binds | Flag-Nod1 (protein, UniProt Q9Y239 1-953, looked up, not shown: small tags and cut ends) MEEQGHSEMEIIPSESHPHIQLLKSNRELLVTHIRNTQCLVDNLLKNDYFSAEDAEIVCACPTQPDKVRKILDLVQSKGEEVSEFFLYLLQQLADAYVDLRPWLLEIGFSPSLLTQSKVVVNTDPVSRYTQQLRHHLGRDSKFVLCYAQKEELLLEEIYMDTIMELVGFSNESLGSLNSLACLLDHTTGILNEQGETIFILGDAGVGKSMLLQRLQSLWATGRLDAGVKFFFHFRCRMFSCFKESDRLCLQDLLFKHYCYPERDPEEVFAFLLRFPHVALFTFDGLDELHSDLDLSRVPDSSCPWEPAHPLVLLANLLSGKLLKGASKLLTARTGIEVPRQFLRKKVLLRGFSPSHLRAYARRMFPERALQDRLLSQLEANPNLCSLCSVPLFCWIIFRCFQHFRAAFEGSPQLPDCTMTLTDVFLLVTEVHLNRMQPSSLVQRNTRSPVETLHAGRDTLCSLGQVAHRGMEKSLFVFTQEEVQASGLQERDMQLGFLRALPELGPGGDQQSYEFFHLTLQAFFTAFFLVLDDRVGTQELLRFFQEWMPPAGAATTSCYPPFLPFQCLQGSGPAREDLFKNKDHFQFTNLFLCGLLSKAKQKLLRHLVPAAALRRKRKALWAHLFSSLRGYLKSLPRVQVESFNQVQAMPTFIWMLRCIYETQSQKVGQLAARGICANYLKLTYCNACSADCSALSFVLHHFPKRLALDLDNNNLNDYGVRELQPCFSRLTVLRLSVNQITDGGVKVLSEELTKYKIVTYLGLYNNQITDVGARYVTKILDECKGLTHLKLGKNKITSEGGKYLALAVKNSKSISEVGMWGNQVGDEGAKAFAEALRNHPSLTTLSLASNGISTEGGKSLARALQQNTSLEILWLTQNELNDEVAESLAEMLKVNQTLKHLWLIQNQITAKGTAQLADALQSNTGITEICLNGNLIKPEEAKVYEDEKRIICF |  |
